At least one compound was matched to its structure with a doubt left.
Experiments:
[1] = target: 20 kD truncated collagenase-3 (MMP-13); assay: Matrix Metalloprotease Inhibition Protocol, collagenase-3; assay type: biochemical; conditions: fluorogenic substrate, pH 7.6; IC50 equivalent to Ki at [S]<<Km
Description: (§1) A. Matrix Metalloprotease Inhibition Protocol
(§2) Assays are conducted in a total volume of 0.180 mL assay buffer (200 mM NaCl, 50 mM Tris, 5 mM CaCl2, 10 μM ZnSO4, 0.005% Brij 35, pH 7.6) in each well of a black 96 well microtiter plate. 19 kD collagenase-1, 20 kD collagenase-3, stromelysin-1,and 50 kD gelatinase B concentrations are adjusted to 500 pM, 30 pM, 5 nM, and 100 pM, respectively. A dose response is generated using an eleven-point, 3-fold serial dilution with initial starting test compound concentrations of 100, 10, or 1 μM. Inhibitor and enzyme reactions are incubated for 30 minutes at ambient temperature and then initiated with 10 μM fluorogenic substrate (above). The product formation is measured at Excitation343 /Emission450 nm after 45-180 minutes using a Fluostar SLT fluorescence analyzer. Percent inhibition is calculated at each inhibitor concentration and the data were plotted using standard curve fitting programs. IC50 values were determined from these curves.

[2] = target: 50 kD truncated gelatinase B (MMP-9); assay: Matrix Metalloprotease Inhibition Protocol, gelatinase B; assay type: biochemical; conditions: fluorogenic substrate, pH 7.6; IC50 equivalent to Ki at [S]<<Km
Description: as §1, §2

For CCC[C@@H]([C@@H](CCCc1ccccc1)C(=O)N[C@@H](CCCCNC(=O)OCc1ccccc1)C(=O)Nc1nncs1)N(O)C=O [Example 3, (2R,3S)-3-(Formyl-hydroxyamino)-2-(3-phenyl-1-propyl)hexanoic Acid [(1S)-5-Benzyloxycarbonylamino-1-(1,3,4-thiadiazol-2-yl-carbamoyl)-1-pentyl]amide], the Ki [1] was under 100 nM and the Ki [2] was 100 to 500 nM.
